Consider 16 molecules from PubChem BioAssay AID334 (DTP/NCI, 2004).

The list is a part of this screen's results and no random one: it is rich in T/C values a quarter to a half above the control, in often repeated tests (any T/C) and in doses without a T/C. Other doses and runs of a compound stand elsewhere. T/C is the treated group as % of the vehicle group. Some entries give survivors of the animals treated and no T/C: the source files T/C as zero there, which appears to mark a toxic dose or a test without result, not a measured value. Some doses without a T/C left all or most animals alive at the check, yet need not have been tolerated: survival well below the control is almost never listed, so the zero probably covers shortened survival too. Survivors were counted at the toxicity check, usually on the fifth day, unless a day is given; later deaths do not show. Schedule codes are those of the source, read here as Q, the interval in days (D) or hours (H), X, the number of doses. Some entries hold several experiments; the results are listed from low to high. Where survival is the endpoint, this PubChem deposit counts one and a half times the control or more as active, and values a quarter to a half above the control carry no call in these data; other NCI protocols may use other cut-offs. Some T/C values are followed by the survivors on the day toxicity was checked, most often the fifth; without a count, all were alive then.

The experiment deals with CD2F1 mice, intracerebral P388 leukemia, median survival T/C%. In words: NCI In Vivo Anticancer Drug Screen. Data for tumor model P388 Leukemia (intracerebral) in CD2F1 (CDF1) mice. The conditions noted are these: T/C endpoint: median survival time, higher T/C = longer survival. The protocol:
The antitumor activity of compounds was measured in mice bearing transplantable tumors. Survival or tumor size were measured and the results are expressed as the measurement made in the treated group (T) divided by the measurement made in the vehicle treated control group (C). The tumor model used in this assay is P388 Leukemia (intracerebral) in CD2F1 (CDF1) mice

The mark [1] stands for this setting: dose: 200.0 mg/kg/injection, schedule: Q01DX009 (ip), vehicle: saline.
Where [2] appears, read: dose: 25.0 mg/kg/injection, schedule: Q01DX009 (ip), vehicle: saline.
The mark [3] stands for this setting: dose: 100.0 mg/kg/injection, schedule: Q01DX009 (ip), vehicle: saline.

`CN(Cc1cnc2nc(N[Si](C)(C)C)nc(N[Si](C)(C)C)c2n1)c1ccc(C(=O)NC(CCC(=O)O[Si](C)(C)C)C(=O)O[Si](C)(C)C)cc1` (centres undefined): the survivor count was 6 of 6 (dose: 2.5 mg/kg/injection, schedule: Q01DX009 (ip), vehicle: olive oil, sesame oil, peanut oil); 6 of 6 (dose: 5.0 mg/kg/injection, schedule: Q01DX009 (ip), vehicle: olive oil, sesame oil, peanut oil); 5 of 6 (dose: 7.5 mg/kg/injection, schedule: Q04DX003 (ip), vehicle: saline); 6 of 6 (dose: 10.0 mg/kg/injection, schedule: Q01DX009 (ip), vehicle: olive oil, sesame oil, peanut oil); 5 of 6 (dose: 10.0 mg/kg/injection, schedule: Q01DX009 (ip), vehicle: saline); 5 of 6 (dose: 20.0 mg/kg/injection, schedule: Q01DX009 (ip), vehicle: olive oil, sesame oil, peanut oil). For the same molecule, the survivor count is, setting by setting: (dose: 20.0 mg/kg/injection, schedule: Q01DX009 (ip), vehicle: saline) 3 of 6; (dose: 120.0 mg/kg/injection, schedule: Q04DX003 (ip), vehicle: saline) 4 of 6.
For the molecule `COc1cc([C@@H]2c3cc4c(cc3[C@@H](OC3OC5CO[C@@H](c6cccs6)OC5C(O)C3O)[C@H]3COC(=O)[C@H]23)OCO4)cc(OC)c1O` (some centres undefined), the T/C (dose: 1.0 mg/kg/injection, schedule: Q01DX009 (ip), vehicle: saline) is 131 % of control. Moreover, the survivor count (dose: 8.0 mg/kg/injection, schedule: Q01DX009 (ip), vehicle: saline) is on record as 4 of 6.
`CCCCCCC(=O)O[C@H]1CC[C@H]2[C@@H]3CCC4=CC(=O)CC[C@]4(C)[C@H]3CC[C@]12C`: where the note is “dose: 256.0 mg/kg/injection, schedule: Q01DX009 (ip), vehicle: saline + alcohol”, the survivor count was 1 of 6 and 3 of 6.
In the case of `CN(Cc1cnc2nc(N)nc(N)c2n1)c1ccc(C(=O)N[C@@H](CCC(=O)O)C(=O)O)cc1`, the survivor count is, setting by setting: (dose: 0.75 mg/kg/injection, schedule: Q01DX009 (ip), vehicle: olive oil, sesame oil, peanut oil) 6 of 6; (dose: 1.5 mg/kg/injection, schedule: Q01DX009 (ip), vehicle: olive oil, sesame oil, peanut oil) 6 of 6; (dose: 3.0 mg/kg/injection, schedule: Q01DX009 (ip), vehicle: olive oil, sesame oil, peanut oil) 3 of 6; (dose: 3.0 mg/kg/injection, schedule: Q01DX009 (ip), vehicle: saline) 6 of 6; (dose: 6.1 mg/kg/injection, schedule: Q01DX009 (ip), vehicle: olive oil, sesame oil, peanut oil) 3 of 6; (dose: 6.1 mg/kg/injection, schedule: Q01DX009 (ip), vehicle: saline) 6 of 6. In addition, the survivor count reads like this: (dose: 12.2 mg/kg/injection, schedule: Q01DX009 (ip), vehicle: olive oil, sesame oil, peanut oil) 2 of 6; (dose: 12.2 mg/kg/injection, schedule: Q01DX009 (ip), vehicle: saline) 4 of 6; (dose: 73.5 mg/kg/injection, schedule: Q04DX003 (ip), vehicle: saline) 4 of 6. The T/C (dose: 0.75 mg/kg/injection, schedule: Q01DX009 (ip), vehicle: saline) is 97, 98, 101, 111, 113, 116, 120 % of control; the T/C (dose: 1.5 mg/kg/injection, schedule: Q01DX009 (ip), vehicle: saline) is 92, 93 [9 of 10 alive], 102, 105, 110, 120, 132 % of control; the T/C (dose: 2.3 mg/kg/injection, schedule: Q01DX009 (ip), vehicle: saline) is reported as 96, 105, 108, 111, 114, 126 % of control; the T/C (dose: 3.4 mg/kg/injection, schedule: Q01DX009 (ip), vehicle: saline) was 102 [9 of 10 alive], 108, 109 [9 of 10 alive], 111, 120, 122 % of control.
`CC1(C)N=C(N)N=C(N)N1c1ccc(OCC(=O)N2CCOCC2)c(Cl)c1`: the survivor count under setting [1] is given as 2 of 6.
Consider `CC1(C)N=C(N)N=C(N)N1c1ccc(OCC(=O)Nc2ccc(S(=O)(=O)F)cc2)c(Cl)c1`, for which the T/C (dose: 400.0 mg/kg/injection, schedule: Q04DX003 (ip), vehicle: saline) was 127 % of control.
Take `CC1(C)N=C(N)N=C(N)N1c1ccc(CCCCc2ccc(Cl)c(S(=O)(=O)F)c2)c(Cl)c1`: the survivor count (dose: 40.0 mg/kg/injection, schedule: Q01DX009 (ip), vehicle: saline) is reported as 4 of 6.
Consider `CCN(CC)c1ccc2cc3ccc(=[N+](CC)CC)cc-3oc2c1`, for which the survivor count (dose: 16.0 mg/kg/injection, schedule: Q01DX005 (ip), vehicle: suspension in saline) was 7 of 10 and the survivor count (dose: 32.0 mg/kg/injection, schedule: Q01DX005 (ip), vehicle: suspension in saline) is listed as 0 of 10.
Consider `CCCCCCCCCCCCCCCCCC(=O)NC(Cc1ccc(N(CCCl)CCCl)cc1)C(=O)O` (centres undefined), for which the T/C was 126 % of control (dose: 7.5 mg/kg/injection, schedule: Q03HX008 (ip), vehicle: saline) and 136 % of control [9 of 10 alive] (dose: 15.0 mg/kg/injection, schedule: Q03HX008 (ip), vehicle: saline). Further, the survivor count reads like this: (dose: 30.0 mg/kg/injection, schedule: Q03HX008 (ip), vehicle: saline) 8 of 10; (dose: 60.0 mg/kg/injection, schedule: Q03HX008 (ip), vehicle: saline) 0 of 10.
In the case of `O=C1N(Cl)C(=O)C(c2ccc(Cl)cc2)(c2ccc(Cl)cc2)N1Cl`, where the note is “dose: 400.0 mg/kg/injection, schedule: Q01DX009 (ip), vehicle: saline with Tween-80”, the survivor count is recorded as 9 of 10.
As to `CNc1nc(N(C)C)nc(N(C)C)n1`, the T/C is, setting by setting: under setting [2], 104 [5 of 6 alive], 105, 114 % of control; (dose: 50.0 mg/kg/injection, schedule: Q01DX009 (ip), vehicle: saline) 117, 120, 121, 129 % of control; under setting [3], 122 and 131 % of control. For the same molecule, the survivor count is reported as 5 of 6 under setting [2]; 5 of 6 under setting [3]; 8 of 10 (dose: 128.0 mg/kg/injection, schedule: Q01DX009 (ip), vehicle: saline); 2 of 6, 3 of 6, 5 of 6, 6 of 6 under setting [1].
As to `CCCCCC(=O)O[C@]1(C(C)=O)CC[C@H]2[C@@H]3CCC4=CC(=O)CC[C@]4(C)[C@H]3CC[C@@]21C`, the T/C (dose: 64.0 mg/kg/injection, schedule: Q01DX009 (ip), vehicle: saline with Tween-80) was 133 % of control.
Turning to `NC(=O)c1csc(C2OC(CO)C(O)C2O)n1` (centres undefined), the T/C (dose: 400.0 mg/kg/injection, schedule: Q01DX009 (ip), vehicle: saline) is 142 % of control.
In the case of `CC(=O)N[C@@H](Cc1ccc(N(CCCl)CCCl)cc1)C(=O)ON1C(=O)CCC1=O`, the T/C was 126 % of control [9 of 10 alive] (dose: 11.6 mg/kg/injection, schedule: Q03HX008 (ip), vehicle: saline) and 131 % of control [7 of 10 alive] (dose: 23.2 mg/kg/injection, schedule: Q03HX008 (ip), vehicle: saline). For the same molecule, under “dose: 46.4 mg/kg/injection, schedule: Q03HX008 (ip), vehicle: saline”, the survivor count is given as 9 of 10.
As for `CC/C(=C(/CC)c1ccc(O)cc1)c1ccc(O)cc1`, where the note is “dose: 512.0 mg/kg/injection, schedule: Q01DX009 (ip), vehicle: saline”, the survivor count is recorded as 6 of 6.
Take `COc1cc(NCc2ccc3nc(N)nc(N)c3c2C)cc(OC)c1OC` (tested in a mixture with another compound): the T/C (dose: 60.0 mg/kg/injection, schedule: Q01DX009 (ip), vehicle: water) was 130 % of control. The survivor count (dose: 120.0 mg/kg/injection, schedule: Q01DX009 (ip), vehicle: water) is on record as 0 of 6.
